# Experimental data from the supplement of paper PMC8728848.
# This is one part of the list.
# B1: Clec18Av1 (Homo sapiens), A5D8T8 (protein)
# chain: MLHPETSPGRGHLLAVLLALLGTAWAEVWPPQLQEQAPMAGALNRKESFLLLSLHNRLRSWVQPPAADMRRLDWSDSLAQLAQARAALCGTPTPSLASGLWRTLQVGWNMQLLPAGLVSFVEVVSLWFAEGQRYSHAAGECARNATCTHYTQLVWATSSQLGCGRHLCSAGQAAIEAFVCAYSPRGNWEVNGKTIVPYKKGAWCSLCTASVSGCFKAWDHAGGLCEVPRNPCRMSCQNHGRLNISTCHCHCPPGYTGRYCQVRCSLQCVHGRFREEECSCVCDIGYGGAQCATKVHFPFHTCDLRIDGDCFMVSSEADTYYRARMKCQRKGGVLAQIKSQKVQDILAFYLGRLETTNEVIDSDFETRNFWIGLTYKTAKDSFRWATGEHQAFTSFAFGQPDNHGFGNCVELQASAAFNWNDQRCKTRNRYICQFAQEHISRWGPGS
# How the values were obtained:
# Experiment in all cases: glycan array binding signal (z-score within array); higher = stronger binding
# Details in all cases: glycan notation: IUPAC condensed, linker removed
# [1] = molecular target: Fuc(a1-3)[Gal(b1-4)]GlcNAc(b1-3)Gal(b1-4)[Fuc(a1-3)]GlcNAc
# Procedure, shortened: (§1)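 Arrays were curated from the Consortium for Functional Glycomics database, 3228 in total, and kept only where the protein sequence was available. Binding is expressed as a within-array Z-score. This score was averaged across arrays of the same protein sequence at different concentrations or buffers and across linkers, and negative values can be read as non-binding.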
# [2] = molecular target: Fuc(a1-3)[Gal(b1-4)]GlcNAc(b1-3)Gal(b1-4)[Fuc(a1-3)]GlcNAc(b1-3)Gal(b1-4)[Fuc(a1-3)]GlcNAc
# Procedure, shortened: as §1
# [3] = molecular target: Fuc(a1-3)[Gal(b1-4)]GlcNAc(b1-3)GalNAc
# Procedure, shortened: as §1
# [4] = molecular target: Fuc(a1-3)[Gal(b1-4)]GlcNAc(b1-6)GalNAc
# Procedure, shortened: as §1
# [5] = molecular target: Fuc(a1-3)[Gal(b1-4)]GlcNAc(b1-6)[Gal(b1-3)GlcNAc(b1-3)]Gal(b1-4)Glc
# Procedure, shortened: as §1
# [6] = molecular target: Fuc(a1-3)[Gal(b1-4)]GlcNAc6S
# Procedure, shortened: as §1
# [7] = molecular target: Fuc(a1-3)[Gal3S(b1-4)]Glc
# Procedure, shortened: as §1
# [8] = molecular target: Fuc(a1-3)[Gal3S(b1-4)]GlcNAc
# Procedure, shortened: as §1
# [9] = molecular target: Fuc(a1-3)[Gal3S(b1-4)]GlcNAc6S
# Procedure, shortened: as §1
# [10] = molecular target: Fuc(a1-3)[GalNAc(b1-4)]GlcNAc
# Procedure, shortened: as §1
# [11] = molecular target: Fuc(a1-3)[GalNAc(b1-4)]GlcNAc6S
# Procedure, shortened: as §1
# Fuc(a1-4)GlcNAc = molecular target: Fuc(a1-4)GlcNAc
# Procedure, shortened: as §1
# Fuc(b1-3)GlcNAc = molecular target: Fuc(b1-3)GlcNAc
# Procedure, shortened: as §1
# Gal(a1-2)Gal = molecular target: Gal(a1-2)Gal
# Procedure, shortened: as §1
# Gal(a1-3)Gal = molecular target: Gal(a1-3)Gal
# Procedure, shortened: as §1
# Gal(a1-3)Gal(b1-3)GlcNAc = molecular target: Gal(a1-3)Gal(b1-3)GlcNAc
# Procedure, shortened: as §1
# [12] = molecular target: Gal(a1-3)Gal(b1-3)GlcNAc(b1-2)Man
# Procedure, shortened: as §1
# [13] = molecular target: Gal(a1-3)Gal(b1-3)GlcNAc(b1-2)Man(a1-3)[Gal(a1-3)Gal(b1-3)GlcNAc(b1-2)Man(a1-6)]Man(b1-4)GlcNAc(b1-4)GlcNAc
# Procedure, shortened: as §1
# [14] = molecular target: Gal(a1-3)Gal(b1-3)GlcNAc(b1-3)GalNAc
# Procedure, shortened: as §1
# [15] = molecular target: Gal(a1-3)Gal(b1-3)GlcNAc(b1-6)GalNAc
# Procedure, shortened: as §1
# [16] = molecular target: Gal(a1-3)Gal(b1-3)[Fuc(a1-4)]GlcNAc(b1-2)Man(a1-3)[Gal(a1-3)Gal(b1-3)[Fuc(a1-4)]GlcNAc(b1-2)Man(a1-6)]Man(b1-4)GlcNAc(b1-4)GlcNAc
# Procedure, shortened: as §1
# Gal(a1-3)Gal(b1-4)Glc = molecular target: Gal(a1-3)Gal(b1-4)Glc
# Procedure, shortened: as §1
# Gal(a1-3)Gal(b1-4)GlcNAc = molecular target: Gal(a1-3)Gal(b1-4)GlcNAc
# Procedure, shortened: as §1
# [17] = molecular target: Gal(a1-3)Gal(b1-4)GlcNAc(b1-2)Man
# Procedure, shortened: as §1
# [18] = molecular target: Gal(a1-3)Gal(b1-4)GlcNAc(b1-2)Man(a1-3)[Gal(a1-3)Gal(b1-4)GlcNAc(b1-2)Man(a1-6)]Man(b1-4)GlcNAc(b1-4)GlcNAc
# Procedure, shortened: as §1
# [19] = molecular target: Gal(a1-3)Gal(b1-4)GlcNAc(b1-3)GalNAc
# Procedure, shortened: as §1
# [20] = molecular target: Gal(a1-3)Gal(b1-4)GlcNAc(b1-6)GalNAc
# Procedure, shortened: as §1
# [21] = molecular target: Gal(a1-3)Gal(b1-4)[Fuc(a1-3)]GlcNAc
# Procedure, shortened: as §1
# [22] = molecular target: Gal(a1-3)Gal(b1-4)[Fuc(a1-3)]GlcNAc(b1-2)Man(a1-3)[Gal(a1-3)Gal(b1-4)[Fuc(a1-3)]GlcNAc(b1-2)Man(a1-6)]Man(b1-4)GlcNAc(b1-4)GlcNAc
# Procedure, shortened: as §1
# Gal(a1-3)GalNAc = molecular target: Gal(a1-3)GalNAc
# Procedure, shortened: as §1
# [23] = molecular target: Gal(a1-3)[Gal(a1-4)]Gal(b1-4)GlcNAc
# Procedure, shortened: as §1
# [24] = molecular target: Gal(a1-4)Gal(b1-3)GlcNAc(b1-2)Man(a1-3)[Gal(a1-4)Gal(b1-3)GlcNAc(b1-2)Man(a1-6)]Man(b1-4)GlcNAc(b1-4)GlcNAc
# Procedure, shortened: as §1
# Gal(a1-4)Gal(b1-4)Glc = molecular target: Gal(a1-4)Gal(b1-4)Glc
# Procedure, shortened: as §1
# Gal(a1-4)Gal(b1-4)GlcNAc = molecular target: Gal(a1-4)Gal(b1-4)GlcNAc
# Procedure, shortened: as §1
# [25] = molecular target: Gal(a1-4)Gal(b1-4)GlcNAc(b1-2)Man(a1-3)[Gal(a1-4)Gal(b1-4)GlcNAc(b1-2)Man(a1-6)]Man(b1-4)GlcNAc(b1-4)GlcNAc
# Procedure, shortened: as §1
# [26] = molecular target: Gal(a1-4)Gal(b1-4)GlcNAc(b1-3)Gal(b1-4)Glc
# Procedure, shortened: as §1
# Gal(a1-4)GlcNAc = molecular target: Gal(a1-4)GlcNAc
# Procedure, shortened: as §1
# Gal(a1-6)Glc = molecular target: Gal(a1-6)Glc
# Procedure, shortened: as §1
binder,measurement,setting,value
B1,glycan array binding signal (z-score),[1],0.079
same,glycan array binding signal (z-score),[2],-0.748
same,glycan array binding signal (z-score),[3],1.02
same,glycan array binding signal (z-score),[4],-0.354
same,glycan array binding signal (z-score),[5],1.82
same,glycan array binding signal (z-score),[6],1.02
same,glycan array binding signal (z-score),[7],-0.1
same,glycan array binding signal (z-score),[8],-0.843
same,glycan array binding signal (z-score),[9],-0.637
same,glycan array binding signal (z-score),[10],1.11
same,glycan array binding signal (z-score),[11],1.55
same,glycan array binding signal (z-score),Fuc(a1-4)GlcNAc,-0.636
same,glycan array binding signal (z-score),Fuc(b1-3)GlcNAc,-0.849
same,glycan array binding signal (z-score),Gal(a1-2)Gal,-0.398
same,glycan array binding signal (z-score),Gal(a1-3)Gal,-0.255
same,glycan array binding signal (z-score),Gal(a1-3)Gal(b1-3)GlcNAc,0.376
same,glycan array binding signal (z-score),[12],3.22
same,glycan array binding signal (z-score),[13],0.008
same,glycan array binding signal (z-score),[14],2.38
same,glycan array binding signal (z-score),[15],0.002
same,glycan array binding signal (z-score),[16],0.72
same,glycan array binding signal (z-score),Gal(a1-3)Gal(b1-4)Glc,0.174
same,glycan array binding signal (z-score),Gal(a1-3)Gal(b1-4)GlcNAc,0.888
same,glycan array binding signal (z-score),[17],0.623
same,glycan array binding signal (z-score),[18],0.559
same,glycan array binding signal (z-score),[19],0.25
same,glycan array binding signal (z-score),[20],-0.214
same,glycan array binding signal (z-score),[21],2.81
same,glycan array binding signal (z-score),[22],-0.035
same,glycan array binding signal (z-score),Gal(a1-3)GalNAc,-0.534
same,glycan array binding signal (z-score),[23],0.638
same,glycan array binding signal (z-score),[24],1.03
same,glycan array binding signal (z-score),Gal(a1-4)Gal(b1-4)Glc,-0.154
same,glycan array binding signal (z-score),Gal(a1-4)Gal(b1-4)GlcNAc,1.52
same,glycan array binding signal (z-score),[25],0.478
same,glycan array binding signal (z-score),[26],-0.559
same,glycan array binding signal (z-score),Gal(a1-4)GlcNAc,-0.777
same,glycan array binding signal (z-score),Gal(a1-6)Glc,-0.747
